{"source": "PubChem BioAssay AID1259308 (NCATS, 2017)", "screen": "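Knock-downs that increase output of a recombinant reporter protein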 (primary screen)", "cell system": "human HEK293 embryonic kidney cells stably expressing firefly luciferase (HEK-CMV-Luc2-Hygro)", "reagent": "single siRNA against human genes, 0.8 pmol siRNA per well", "time to read-out": "72 h", "read-out": "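Luciferase light (ONE-Glo) measured on one replicate plate set and viability (CellTiter-Glo) on the other, scaled to a negative control siRNA, with robust z-scores and luciferase per cell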", "scale": "total luciferase, z-score and total luciferase, % of control: higher = more reporter protein produced", "active means": "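Active when the median/MAD z-score for overall luciferase is greater than 3; a gene was taken forward for validation with new siRNAs if at least two of its three siRNAs passed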", "calls": "active = raised luciferase; inactive = no rise", "note": "Here is one part, drawn at random, of about 59,000 reagents. Of all reagents, about 1,510 (2.6%) were called active. 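Calls use total luciferase alone and ignore viability, so some active siRNAs may act by altering cell number.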 Not all columns of the deposit are shown."}
{"gene symbol": "ARL14", "PubChem SID": "SID160750059", "total luciferase, z-score": 0.413, "total luciferase, % of control": 90.1, "call": "inactive"}
{"gene symbol": "ARL14", "PubChem SID": "SID160750060", "total luciferase, z-score": 0.285, "total luciferase, % of control": 87.6, "call": "inactive"}
{"gene symbol": "ARL14", "PubChem SID": "SID160750061", "total luciferase, z-score": -1.21, "total luciferase, % of control": 57.9, "call": "inactive"}
{"gene symbol": "PLK1", "PubChem SID": "SID160758303", "total luciferase, z-score": -2.28, "total luciferase, % of control": 36.5, "call": "inactive"}
{"gene symbol": "PLK1", "PubChem SID": "SID160758405", "total luciferase, z-score": -2.07, "total luciferase, % of control": 40.7, "call": "inactive"}
{"gene symbol": "PLK1", "PubChem SID": "SID160758511", "total luciferase, z-score": -2.2, "total luciferase, % of control": 38.2, "call": "inactive"}
{"gene symbol": "SLC10A3", "PubChem SID": "SID160719788", "total luciferase, z-score": -0.676, "total luciferase, % of control": 68.4, "call": "inactive"}
{"gene symbol": "SLC10A3", "PubChem SID": "SID160719789", "total luciferase, z-score": -1.6, "total luciferase, % of control": 50, "call": "inactive"}
{"gene symbol": "SLC10A3", "PubChem SID": "SID160731979", "total luciferase, z-score": -2.32, "total luciferase, % of control": 35.7, "call": "inactive"}
{"gene symbol": "OGT", "PubChem SID": "SID160720117", "total luciferase, z-score": -0.308, "total luciferase, % of control": 75.8, "call": "inactive"}
{"gene symbol": "OGT", "PubChem SID": "SID160720118", "total luciferase, z-score": -1.08, "total luciferase, % of control": 60.4, "call": "inactive"}
{"gene symbol": "OGT", "PubChem SID": "SID160720119", "total luciferase, z-score": 0.265, "total luciferase, % of control": 87.2, "call": "inactive"}

Ordered by “total luciferase, % of control” (descending): 2 of the entries above.
{"gene symbol": "SLC10A3", "PubChem SID": "SID160719788", "total luciferase, z-score": -0.676, "total luciferase, % of control": 68.4, "call": "inactive"}
{"gene symbol": "PLK1", "PubChem SID": "SID160758511", "total luciferase, z-score": -2.2, "total luciferase, % of control": 38.2, "call": "inactive"}
